## Results of single-concentration screens

By UniProt entry, the sequences of proteins in these tests, tags left out.
UniProt P9WFT3, whole entry: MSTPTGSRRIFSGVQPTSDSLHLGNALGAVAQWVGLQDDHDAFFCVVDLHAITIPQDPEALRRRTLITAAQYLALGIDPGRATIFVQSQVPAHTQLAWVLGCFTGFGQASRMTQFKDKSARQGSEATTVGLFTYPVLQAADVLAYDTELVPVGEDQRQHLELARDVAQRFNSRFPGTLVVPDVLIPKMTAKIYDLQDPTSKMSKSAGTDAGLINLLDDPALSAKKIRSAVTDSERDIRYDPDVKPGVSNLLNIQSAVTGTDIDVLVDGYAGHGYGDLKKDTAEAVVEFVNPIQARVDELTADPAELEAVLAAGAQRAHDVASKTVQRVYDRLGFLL

Data taken from ChEMBL document CHEMBL3988442, “University of Dundee, Small-Polar-MMV Screening Library” (2021).

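Enzyme assay of tryptophanyl-tRNA synthetase; the read-out is not stated. Target: Tryptophan-tRNA ligase, Mycobacterium tuberculosis (UniProt P9WFT3). Concentration: 10 µM. Higher most likely means stronger inhibition; the record gives no direction and few retests gave an IC50. Of about 65,000 compounds tested this way, about 64 (0.098%) reached 50% or more in at least one test.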

Each number is a percent effect as filed.
The record does not define 0% and 100%; most values in the screen are far below 50% and negative numbers occur (in some assays of this library far below -100).
Compounds were drawn at random from those tested, without regard to their results.

| structure | percent effect |
|---|---|
| `COc1ccccc1N1CCN(C(=O)CCn2ccc(C)n2)CC1(C)C` | -4.727 |
| `CC(C)n1cc(-c2nc3cc(S(=O)(=O)N4CCCC4)ccc3n2C)cn1` | -2.175 |
| `Cn1cnc2c1CCN(Cc1c(Cl)ccc3cccnc13)C2` | -5.676 |
| `Cn1ccnc1C(=O)NC[C@@H]1OC[C@H]2CN(S(C)(=O)=O)CC[C@H]21` | -6.46 |
| `CCOC(=O)c1n[nH]cc1-c1cncn1CCCn1nc(C)cc1C` | -4.706 |
| `CN1CCN(Cc2cnc3n2CCN(C(=O)c2ccoc2)C3)CC1` | -4.198 |
| `CCc1ccc(CN(C)c2cc(COC)nc3ccnn23)cc1` | 2.835 |
| `CC(=O)c1ccc(NC(=O)NCc2cccc(N(C)C)n2)cc1C` | 2.933 |
| `CNC(=O)C1CCCCN1C(=O)c1cn(CCOC)c2ccccc12` (stereo not given) | -5.103 |
| `O=C(NC1CCCC1)C1Cc2nc(-c3ccsc3)sc2N1CC1CC1` (stereo not given) | 23.49 |
| `CC(C)C(=O)N1C[C@H]2CCCN[C@H]2C1` | -2.021 |
| `O=C(Cn1nnc(-c2cc3ccccc3o2)n1)N1CCOCC1` | -2.668 |
| `CC(C)C(=O)N1CCCC(Cc2cccnc2)C1` (stereo not given) | -2.514 |
| `CNc1ncc(CN2CCC(CCc3ccccc3)CC2)cn1` | -6.223 |
| `CN1CCN(c2cc(CNC(=O)c3cccnc3O)ccn2)CC1` | -5.512 |
| `O=C1CO[C@@H]2CN(Cc3ccncc3)C[C@H]2N1Cc1ccncc1` | 8.195 |
| `CN(C(=O)c1ccc[nH]1)C1CC(=O)N(Cc2ccccc2)C1=O` (stereo not given) | -7.352 |
| `CCSc1nc2ccccc2c(=O)n1OCC(=O)OC` | -3.476 |
| `Cc1cnc(CCNC(=O)C2CCN(S(=O)(=O)c3ccc(F)cc3)C2)s1` (stereo not given) | 3.317 |
| `Cn1c(C2CCCN2C(=O)CN2CSCC2=O)nc2ccccc21` (stereo not given) | -1.861 |
| `CC(NCc1ccccc1Cl)c1ccc2[nH]c(=O)[nH]c2c1` (stereo not given) | -7.592 |
| `CNC(=O)C1Cn2ccnc2C2(CCN(C(=O)c3ccoc3C)CC2)O1` (stereo not given) | -9.808 |
| `c1cc(CNCc2ccnc(N3CCCC3)c2)c2c(c1)OCCO2` | 0.6463 |
| `CNC(=O)COc1ccccc1CNCc1c(C)noc1C` | -1.655 |
| `CN1CCN(S(=O)(=O)c2ccc(Cl)c(Cl)c2)c2cnccc21` | 5.083 |
| `CCOCC1COCCC12CCN(C(=O)CC1=CCCCC1)CC2` (stereo not given) | 2.913 |
| `c1cc(-c2ccn(CCN3CCCC3)n2)cc(-c2nccs2)c1` | -0.9675 |
| `CCc1ncncc1C(=O)NCCNc1ncnc2sccc12` | 0.9272 |
| `O=S(=O)(c1cccs1)N1CC[C@H](O)[C@@H]1Cc1ccncc1` | -0.6103 |
| `COc1ccc(-n2ccc(C(=O)NCCN3CCCCC3)n2)cc1` | -5.063 |
| `CN1CCOC(CNCc2nc(-c3cccnc3)no2)C1` (stereo not given) | -0.6717 |
| `O=C1CC2(CCN(Cc3ccccn3)C2)CN1c1cncnc1` (stereo not given) | 1.482 |
| `Cc1cn2c(n1)CCC(NC(=O)c1ccc(S(C)(=O)=O)o1)C2` (stereo not given) | 11.24 |
| `Cc1nc(CN2CCN(C(C)c3nc(C4CC4)no3)CC2)no1` (stereo not given) | -1.76 |
| `CS(=O)(=O)c1cccc(OCC(=O)N2CCCC2c2ccccc2Cl)c1` (stereo not given) | 1.782 |
| `O=C(O)C(c1ccc2c(c1)OCO2)N1CCC(O)(c2cccnc2)CC1` (stereo not given) | -1.343 |
| `Cc1cc(=O)[nH]c(NCCNC(=O)CN2CCCCCC2)n1` | -2.651 |
| `Cc1cnn(CC2CCCN2C(=O)CCc2c(C)noc2C)c1` (stereo not given) | 13.91 |
| `O=C(NCCO)c1sc2ncccc2c1C1CN(C2CCCC2)CCO1` (stereo not given) | -4.92 |
| `CCOCC1CN(C(=O)Cc2ccccn2)Cc2c1cnn2CC` (stereo not given) | 5.383 |
| `COc1ccc(OCCN2CCCN(Cc3noc(C)n3)CC2)cc1` | 6.777 |
| `COc1ccc(Cn2cc(C(=O)N(C)Cc3cnccn3)nn2)cc1` | 4.465 |
| `Cc1cc(NC2CCN(CC3CCCO3)CC2)n2nc(C)c(C)c2n1` (stereo not given) | -3.665 |
| `COCCCNC(=O)N1CCC(CNC(=O)c2cnn(C)c2)CC1` | -1.278 |
| `COc1cccc2c(=O)n(Cc3cc(C4CC4)[nH]n3)cnc12` | 1.41 |
| `Cc1ncsc1CCC(=O)NCc1csc(N(C)C)n1` | 3.549 |
| `CO[C@@H]1CCN(Cc2ccccn2)[C@@H]2CN(Cc3ccco3)C[C@@H]21` | -0.4149 |
| `COc1ccccc1C(O)CNC(=O)Nc1cccnc1OC` (stereo not given) | -4.241 |
| `CO[C@H]1COC[C@@H]1NC(=O)C1(Oc2ccc(Cl)cc2)CCNCC1` | 0.6552 |
| `O=C1NCC[C@]12CN(Cc1ccoc1)C[C@H]2c1ccccc1` | -1.874 |
| `O=C(CS(=O)(=O)C1CCCC1)NC1CCCc2cc(OC(F)F)ccc21` (stereo not given) | -6.69 |
| `CN(Cc1ccccn1)C1COC2(CCN(Cc3nccs3)CC2)C1` (stereo not given) | 3.673 |
| `Cn1ccnc1-c1cccc(NC(=O)NCCCN2CCOCC2)c1` | 0.6463 |
| `CCC(=O)NC1CCCN(c2cncc(OCc3ccccc3)n2)C1` (stereo not given) | 2.877 |
| `Cc1ncc(CN2CCC(c3nc(O)cc(-c4ccsc4)n3)CC2)cn1` | -5.21 |
| `COc1ccnc(C(=O)N2CCCC(c3noc(C)n3)C2)c1` (stereo not given) | 1.495 |
| `N#Cc1cc(NS(=O)(=O)c2cc(C(=O)O)cc(Cl)c2Cl)ccc1F` | 2.414 |
| `Cc1cnc(CNC(=O)c2cc3c(s2)CCN3S(C)(=O)=O)cn1` | -8.95 |
| `CC(=O)Nn1c(C)cc(CN2CCCN(Cc3ccncc3)CC2)c1C` | -3.802 |
| `CNC(=O)CN1CCOCC12CCN(CCc1ccccc1)CC2` | -2.063 |
| `O=c1[nH]nc2c(N3CCOCC3)nccn12` | -4.062 |
| `Cn1nc2c(cc1=O)CN(c1nc3ccccc3s1)CC2` | -5.651 |
| `Cc1nc(CN2CCCN(C(=O)c3cccnc3O)CC2)cs1` | -4.679 |
| `COc1cccc2c1OCC(C(=O)N(Cc1ccncc1)CC(C)C)C2` (stereo not given) | 6.199 |
| `O=c1[nH]c2nc(NCC3CCCO3)ncc2c(=O)n1-c1ccc(F)cc1` (stereo not given) | -1.341 |
| `COc1c(C)cnc(CNC(=O)CCOCC(C)C)c1C` | 0.8642 |
| `OCCC1CCN(c2ccnc3ccsc23)C1` (stereo not given) | -1.162 |
| `O=C(COc1coc(CN2CCCCC2)cc1=O)NCc1ccccc1` | -2.436 |
| `Cn1c(CN2CCC(OCc3cccnc3)CC2)cc2ccccc21` | -0.9449 |
| `Cc1ccc(F)cc1S(=O)(=O)NCc1cccc(C(=O)N2CCCC2)c1` | -3.01 |
| `CSCC[C@H](N)c1nnc(SCC(=O)Nc2ccc(Br)cc2)o1` | -2.931 |
| `Cc1cc(NC(=O)[C@H]2CCCCN2C(=O)OC(C)(C)C)no1` | -0.831 |
| `CN(C(=O)Cc1ccc2c(c1)OCCO2)C1CCCCC1` | 0.4946 |
| `Cc1nonc1CN(C)c1nc(-c2ccco2)nc2c1CCN(C)CC2` | -1.683 |
| `CC(=O)Cn1ncc(N2CCOCC2)cc1=O` | -5.147 |
| `Cc1cnc(CCN(C)C(=O)c2cccc(N(C)C)c2)s1` | -4.48 |
| `CCN1C(=O)C(C)(C)c2cc(NC(=O)c3ccco3)ccc21` | 1.077 |
| `Clc1cccc(Cl)c1CN(CCCN1CCOCC1)Cc1cccnc1` | 6.323 |
| `COc1ccc(F)cc1C(=O)C1CCCN(Cc2ccc(C)s2)C1` (stereo not given) | 6.899 |
| `O=C(CCC1CCCO1)NCc1ccnc(-n2cccn2)c1` (stereo not given) | -2.242 |
| `COCC(=O)N1CCc2cccc(S(=O)(=O)N3CCN(C)CC3)c2C1` | -4.655 |
| `COCC(=O)N1CCN(CC2CC2)c2ncccc2C1` | 2.805 |
| `CCCS(=O)(=O)N1C[C@H]2C[C@H](C(=O)Nc3cccnc3)[C@@H](C1)O2` | -4.222 |
| `CC(C(=O)NCc1ccc(N2CCCC2)nc1)S(C)(=O)=O` (stereo not given) | 59.46 |
| `Cc1nn(Cc2ccc(C(=O)NCCCN3CCCC3=O)o2)c(C)c1Cl` | 2.524 |
| `CC(NC(=O)COc1ccccc1C(=O)O)c1ccc(F)cc1` (stereo not given) | -3.416 |
| `CCCc1nn(C2CCN(C3CC3)C2=O)c(=O)o1` (stereo not given) | 2.235 |
| `O=c1ccc(-c2cccs2)nn1CN1CCc2ccccc2C1` | 0.4902 |
| `COC(=O)Nc1ccc(CNc2cncc(-n3cccn3)n2)cc1` | -2.03 |
| `CC(C)(C)c1cnc(CNc2cccc(Cn3cnnc3)c2)o1` | 0.7009 |
| `Cn1cnc(S(=O)(=O)N2CCCCc3ccccc32)c1` | 0.08937 |
| `CC(Cn1cncn1)NC(=O)c1cn(Cc2ccccc2F)nn1` (stereo not given) | 1.032 |
| `Cc1nc(N2CCC(C(O)c3nccn3C)CC2)c2nc(C)oc2n1` (stereo not given) | 3.109 |
| `Cn1c(C2CCCN2C(=O)CN2CCCC2=O)nc2ccccc21` (stereo not given) | 1.432 |
| `COCC(=O)N1C[C@H]2CN(Cc3csc(C)n3)C(=O)[C@H]2C1` | -5.35 |

Repeated from the top, 6 entries:

- COc1ccccc1N1CCN(C(=O)CCn2ccc(C)n2)CC1(C)C | -4.727%
- CC(C)n1cc(-c2nc3cc(S(=O)(=O)N4CCCC4)ccc3n2C)cn1 | -2.175%
- Cn1cnc2c1CCN(Cc1c(Cl)ccc3cccnc13)C2 | -5.676%
- Cn1ccnc1C(=O)NC[C@@H]1OC[C@H]2CN(S(C)(=O)=O)CC[C@H]21 | -6.46%
- CCOC(=O)c1n[nH]cc1-c1cncn1CCCn1nc(C)cc1C | -4.706%
- CN1CCN(Cc2cnc3n2CCN(C(=O)c2ccoc2)C3)CC1 | -4.198%